Assay results: publication PMC5007559
These are yes or no findings as the source states them, for the method shown. Binding seen in cells or lysates may run through a third protein. Some binding calls cover weakened binding; strength is not graded here. For part of these data: Sequences can lack the tags named with a protein.

Sequences of proteins named here, by UniProt entry; tags and fusion partners are left off. A change or cut given only in a name is not applied to a line headed by its entry.
UniProt O95292: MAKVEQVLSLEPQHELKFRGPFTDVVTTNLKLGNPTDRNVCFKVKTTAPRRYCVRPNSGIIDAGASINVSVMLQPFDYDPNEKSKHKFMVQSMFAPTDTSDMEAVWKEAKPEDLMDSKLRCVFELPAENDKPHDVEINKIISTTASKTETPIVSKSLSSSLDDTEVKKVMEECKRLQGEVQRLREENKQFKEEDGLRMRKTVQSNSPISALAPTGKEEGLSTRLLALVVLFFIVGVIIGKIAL
UniProt P35637: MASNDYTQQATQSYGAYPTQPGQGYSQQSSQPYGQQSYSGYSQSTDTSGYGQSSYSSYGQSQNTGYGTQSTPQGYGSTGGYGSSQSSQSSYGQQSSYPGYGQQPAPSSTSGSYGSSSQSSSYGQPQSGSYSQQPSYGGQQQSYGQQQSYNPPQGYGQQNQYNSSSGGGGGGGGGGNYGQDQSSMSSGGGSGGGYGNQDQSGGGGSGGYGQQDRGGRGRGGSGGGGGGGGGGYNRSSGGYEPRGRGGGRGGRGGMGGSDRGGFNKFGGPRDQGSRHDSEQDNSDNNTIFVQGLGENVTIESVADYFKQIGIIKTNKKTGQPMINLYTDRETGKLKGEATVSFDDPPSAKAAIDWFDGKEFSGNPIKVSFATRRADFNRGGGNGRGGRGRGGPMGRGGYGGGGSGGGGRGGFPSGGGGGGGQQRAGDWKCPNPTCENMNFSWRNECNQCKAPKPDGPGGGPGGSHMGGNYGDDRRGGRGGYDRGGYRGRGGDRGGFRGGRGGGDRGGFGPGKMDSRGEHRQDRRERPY
UniProt Q9QY76: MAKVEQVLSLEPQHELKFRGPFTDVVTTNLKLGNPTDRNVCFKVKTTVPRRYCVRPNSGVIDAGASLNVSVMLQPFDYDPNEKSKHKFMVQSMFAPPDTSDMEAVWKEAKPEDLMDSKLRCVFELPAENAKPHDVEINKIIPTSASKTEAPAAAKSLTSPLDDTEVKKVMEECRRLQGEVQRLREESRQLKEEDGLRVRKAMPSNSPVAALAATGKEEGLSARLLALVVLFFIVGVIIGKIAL

How the values were obtained:
myc-tagged VAPB = myc-tagged VAPB (UniProt O95292); test: co-IP; HEK293 cells transfected with myc-VAPB and HA-FUS (wild type, R521C or R518K); VAPB immunoprecipitated via the myc tag, FUS probed via the HA tag; 50 mM Tris-citrate pH 7.4, 150 mM NaCl, 1% Triton X-100, 5 mM EGTA, 5 mM EDTA, 4 C
[1] = target: T1, haemagglutinin (HA)-tagged PTPIP51 (UniProt Q96TC7); test: co-IP; cells transfected with HA-PTPIP51 and control vector, EGFP-FUS, EGFP-FUSR521C, EGFP-FUSR518K or EGFP-FUSdeltaC; PTPIP51 immunoprecipitated by the HA tag, endogenous VAPB detected by immunoblot; 50 mM Tris-citrate pH 7.4, 150 mM NaCl, 1% Triton X-100, 5 mM EGTA, 5 mM EDTA, 4 C
T1 sequence: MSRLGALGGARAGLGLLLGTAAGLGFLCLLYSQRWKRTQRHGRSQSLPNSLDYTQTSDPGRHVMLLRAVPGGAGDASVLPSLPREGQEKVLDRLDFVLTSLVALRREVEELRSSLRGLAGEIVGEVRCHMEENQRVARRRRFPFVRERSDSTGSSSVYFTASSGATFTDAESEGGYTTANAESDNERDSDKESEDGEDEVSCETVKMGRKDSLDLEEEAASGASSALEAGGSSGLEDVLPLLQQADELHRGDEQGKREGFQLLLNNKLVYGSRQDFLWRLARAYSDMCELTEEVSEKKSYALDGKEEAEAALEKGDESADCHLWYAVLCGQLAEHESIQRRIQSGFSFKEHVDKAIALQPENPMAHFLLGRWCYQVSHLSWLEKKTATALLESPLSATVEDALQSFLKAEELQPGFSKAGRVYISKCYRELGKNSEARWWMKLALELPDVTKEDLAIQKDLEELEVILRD

[2] = target: T2, protein tyrosine phosphatase interacting protein 51 (PTPIP51), endogenous in NSC34 cells and mouse spinal cord motor neurons (mouse (endogenous in NSC34 cells and mouse spinal cord)) (UniProt Q3UJU9); test: proximity ligation; in situ, paraformaldehyde-fixed NSC34 cells probed with rabbit anti-VAPB and rat anti-PTPIP51 antibodies, Duolink In Situ Orange kit; cells untransfected, transfected with EGFP control or EGFP-FUS (wild type, R521C, R518K), or treated with vehicle, 1 uM AR-A014418 or 100 nM CT99021 for 16 h
T2 sequence: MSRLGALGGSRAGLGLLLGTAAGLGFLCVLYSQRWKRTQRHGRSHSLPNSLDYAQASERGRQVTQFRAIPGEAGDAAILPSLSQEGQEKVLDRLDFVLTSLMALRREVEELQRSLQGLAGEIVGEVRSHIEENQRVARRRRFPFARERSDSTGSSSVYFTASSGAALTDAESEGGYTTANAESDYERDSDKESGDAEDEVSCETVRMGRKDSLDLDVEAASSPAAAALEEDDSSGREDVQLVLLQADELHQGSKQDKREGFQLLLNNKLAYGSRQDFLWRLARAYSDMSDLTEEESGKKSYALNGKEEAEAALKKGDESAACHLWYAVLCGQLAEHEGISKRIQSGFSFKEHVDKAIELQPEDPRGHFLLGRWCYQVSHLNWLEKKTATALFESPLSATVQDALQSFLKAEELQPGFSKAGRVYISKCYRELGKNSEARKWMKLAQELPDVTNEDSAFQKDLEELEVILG

[3] = target: T2, protein tyrosine phosphatase interacting protein 51 (PTPIP51), endogenous in NSC34 cells and mouse spinal cord motor neurons (mouse (endogenous in NSC34 cells and mouse spinal cord)); test: proximity ligation; in situ, 30-um sections of paraformaldehyde-fixed mouse spinal cord (FUS transgenic and non-transgenic littermates), lumbar motor neurons, rabbit anti-VAPB and rat anti-PTPIP51 antibodies, Duolink In Situ Brightfield kit

| Substance | binding (myc-tagged VAPB) | other results |
| --- | --- | --- |
| HA-tagged familial ALS mutant FUS R518K (from UniProt P35637 1-526) | no binding |  |
| HA-tagged familial ALS mutant FUS R521C (from UniProt P35637 1-526) | no binding |  |
| HA-tagged wild-type FUS (fused in sarcoma) (from UniProt P35637 1-526) | no binding |  |
| endogenous VAPB of the transfected cells used for immunoprecipitation of HA-PTPIP51 (from UniProt Q9QY76 1-243) |  | binding [1]: binds |
| vesicle-associated membrane protein-associated protein B (VAPB), endogenous in NSC34 cells and mouse spinal cord motor neurons (from UniProt Q9QY76 1-243) |  | binding [2]: binds; binding [3]: binds |
